For some of these results: Negatives hold for the conditions tested. For some of these results: A weaker result is weaker than the reference pair of the same experiment.
Key:
Raf-1 RBD (GST-RBD) [1] = target: Raf-1 RBD (GST-RBD) (UniProt P04049); test: filter binding; conditions: Kd of micromolar order, no number in text; no inhibition of Ras binding at 12.5 uM; purified recombinant protein; protein details: GST fusion, expressed in E. coli; label: 32P
Raf-1 RBD (GST-RBD) [2] = target: Raf-1 RBD (GST-RBD) (UniProt P04049); test: inhibition of the protein; conditions: purified recombinant protein, protein details: GST fusion, expressed in E. coli
[3] = dose-dependent inhibition of Ras binding to GST-RBD, 4 C, label: 5'-32P, dose not given here

| Sequence | functional effect of the aptamer (Raf-1 RBD (GST-RBD) [2]; [3]) | also measured |
| --- | --- | --- |
| GGGAGAUCAGAAUAAACGCUCAACUUGAGCCAAUUAAAAGAUUUACAACAAGAACAUGAACGUGACAGCGAUAAUAAUACGAUUCGACAUGAGGCCCCUGCAGGGCG [clone 21.11] |  | binding result (Raf-1 RBD (GST-RBD) [1]): binds more weakly |
| GGGAGAUCAGAAUAAACGCUCAAGCGACAAGCAGCAGAUAAAGUUGAGCGCAACGCCGCUACAGAACCAAAUUAACAUGUAUGUUCGACAUGAGGCCCCUGCAGGGCG [clone 21.12] |  | functional effect of the aptamer (Raf-1 RBD (GST-RBD) [2]; no inhibition of Ras binding at 12.5 uM, label: 32P): not active |
| GGGAGUGGAGGAAUUCAUCGAGGCAUAUGUCGACUCCGUCUUCCUUCAAACCAGUUAUAAAUUGGUUUUAGCAUAUGCCUUAGCGACAGCAAGCUUCUGC [RNA aptamer SEQ ID NO:25] | active |  |
| GGGAGUGGAGGAAUUCAUCGAGGCAUGACCUCCCGUGGCAGUAGGGGUAAAAAUUAUCUUCCUACACUUCUCAUGCCUUAGCGACAGCAAGCUUCUGC [RNA aptamer SEQ ID NO:26] | active |  |

Reference: US6995249
